# Data as given in PubChem BioAssay AID1259425 (University of Nebraska Medical Center, 2018)
# Screen: 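Seek colon cancer weak points whose silencing resembles KSR1 loss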 (primary screen)
# System: HCT116 human colon cancer cells
# Reagents: siRNA pool against human genes, 50 nM siRNA
# Measured: 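After 50 nM siRNA pool, branched-DNA assay measures six marker transcripts per well, minus blank, normalised to the geometric mean of two housekeeping transcripts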
# Scale: BNIP3L mRNA: higher = more BNIP3L transcript after knockdown; NDRG1 mRNA: higher = more NDRG1 transcript after knockdown; BNIP3 mRNA: higher = more BNIP3 transcript after knockdown; ALDOC mRNA: higher = more ALDOC transcript after knockdown; ACSL5 mRNA: higher = more ACSL5 transcript after knockdown
# Here is one part, drawn at random, of about 14,000 reagents tested. Not given: the time to read-out.
"BNIP3L mRNA, set 1","NDRG1 mRNA, set 1","BNIP3 mRNA, set 1","ALDOC mRNA, set 1","ACSL5 mRNA, set 1",gene knocked down
0.12,0.519,0.294,0.00828,0.342,UNC13A
0.142,0.245,0.206,0.0821,0.182,XKR8
0.169,0.788,0.262,0.0254,0.0884,SLC17A4
0.0877,0.198,0.361,0.0286,0.0779,OBP2A
0.112,0.147,0.402,0.0184,0.241,SUZ12
0.0675,0.0687,0.306,0.0249,0.108,LACTB2
0.157,0.151,0.3,0.0261,0.308,ARFGEF3
0.0933,0.1,0.215,0.0253,0.159,AZI2
0.066,0.077,0.192,0.0187,0.155,CGRRF1
0.0494,0.129,0.111,0.0379,0.1,PSMD14
0.122,0.119,0.371,0.0358,0.133,SEC24A
0.0685,0.147,0.214,0.0168,0.0754,EPAS1
0.0793,0.0836,0.326,0.0118,0.219,BMPR2
0.0752,0.0809,0.212,0.0408,0.0905,CRNKL1
0.198,0.331,0.366,0.0433,0.134,PRR7
0.134,0.212,0.333,0.0132,0.103,GABRD
0.129,0.0973,0.58,0.0304,0.214,HEBP2
0.0694,0.213,0.263,0.0402,0.272,LYZL1
0.0766,0.282,0.347,0.0216,0.224,ATP5PF
0.117,0.83,0.23,0.0379,0.223,FBXO24
0.0602,0.132,0.299,0.0174,0.121,GNAL
0.0719,0.0525,0.267,0.0213,0.0906,HEXB
0.0593,0.149,0.348,0.011,0.187,CTSG
0.0611,0.159,0.0968,0.00521,0.162,MAP2K2
0.183,0.645,0.569,0.0167,0.0881,GSTT4
0.247,0.193,0.345,0.029,0.25,PROX1
0.101,0.31,0.248,0.0174,0.172,LNPEP
0.161,0.114,0.253,0.00785,0.203,ARFIP2
0.144,0.162,0.278,0.0162,0.139,LPIN2
0.0897,0.741,0.272,0.0219,0.382,HELZ
0.0496,0.108,0.204,0.00697,0.213,POT1
0.0578,0.328,0.199,0.0263,0.157,UBTD2
0.163,0.086,0.241,0.0381,0.114,PRDM13
0.105,0.139,0.19,0.0136,0.243,HOMER2
0.142,0.133,0.293,0.0241,0.174,H2AC20
0.158,0.278,0.418,0.0218,0.18,ASB13
0.108,0.188,0.209,0.059,0.238,TAS2R41
0.102,0.176,0.292,0.0191,0.256,PHF7
0.164,0.654,0.332,0.0638,0.237,ARF3
0.211,0.137,0.297,0.0248,0.103,DNASE2
0.0445,0.0307,0.29,0.0112,0.0401,LAD1
0.13,0.642,0.514,0.0351,0.387,DENR
0.0536,0.145,0.159,0.0169,0.15,CXCL11
0.0508,0.0922,0.247,0.0211,0.281,KIF1A
0.0699,0.342,0.29,0.0607,0.146,RAB17
0.212,0.828,0.197,0.0127,0.493,MYBPC2
0.141,0.19,0.28,0.0357,0.397,KDM7A
0.102,0.109,0.231,0.023,0.0851,MT4
0.0678,0.227,0.295,0.0487,0.0988,DHDH
0.0897,0.142,0.372,0.0101,0.201,HIGD1B

A run of entries of the results above, for reference:
"BNIP3L mRNA, set 1","NDRG1 mRNA, set 1","BNIP3 mRNA, set 1","ALDOC mRNA, set 1","ACSL5 mRNA, set 1",gene knocked down
0.0508,0.0922,0.247,0.0211,0.281,KIF1A
0.0699,0.342,0.29,0.0607,0.146,RAB17
0.212,0.828,0.197,0.0127,0.493,MYBPC2
0.141,0.19,0.28,0.0357,0.397,KDM7A
0.102,0.109,0.231,0.023,0.0851,MT4
0.0678,0.227,0.295,0.0487,0.0988,DHDH
